# Assay results from PubChem BioAssay AID493014 (National Center for Advancing Translational Sciences (NCATS), 2011).
# This is one part of the list. Further columns of the screen follow, without active or inactive calls. Compounds called inactive in the main read-out are mostly missing here. Words in brackets tell the shape of the fitted curve; partial curves, single points and poor fits give uncertain potencies.
# Assay: qHTS Assay to Find Inhibitors of Chronic Active B-Cell Receptor Signaling
# Conditions: ABC-DLBCL IkBa-CBG/CBR reporter, luminescence ratio (green luciferase fused to IkBa over red control in TMD8 lymphoma cells), 4 h
# How it was run: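 Concentration-response series (up to 46 uM) were applied to TMD8 dual-reporter cells for 4 h at 37C with doxycycline. Green/red ratio, after filter-overlap correction, defined %Activity; red signal alone was normalised to basal cells and zero luminescence.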
# [1] = measured here: CBR red luminescence, cell number
# [2] = measured here: IkBa-CBG green luminescence
Compound,AC50 [1],AC50 [2]
Cc1cc(C)c(S(=O)(=O)Nc2ccc3c4c(cccc24)CC3)c(C)c1,"1.41 µM [rising, partial curve, poor fit]","1.12 µM [falling, partial curve]"
Cc1ccc(SCC(=O)NNC(=O)c2ccc(S(C)(=O)=O)cc2)cc1,"25.1 µM [rising, single point]",
COc1cc(-c2n[nH]c(=S)n2-c2ccccc2C(F)(F)F)cc(OC)c1OC,"35.5 µM [rising, single point]",
CC1CC(C)CN(S(=O)(=O)c2ccc(NC(=O)c3ccc(=O)[nH]c3)cc2)C1 (stereo not given),"7.31 µM [rising, partial curve]","16.4 µM [falling, partial curve]"
CCn1cc(/C=C/C(=O)Nc2ccc(C)cc2Br)cn1,"0.92 µM [rising, full curve, poor fit]",
CCn1nc(C(=O)NNC(=O)C(Cc2ccccc2)NC(N)=O)c2ccccc2c1=O (stereo not given),"10.3 µM [rising, partial curve]",
CC(NS(=O)(=O)c1ccc(Br)s1)c1ccccc1 (stereo not given),"15.8 µM [falling, partial curve, poor fit]",
CCN(C(=O)CN1C(=O)NC(CCSC)C1=O)C1CCS(=O)(=O)C1 (stereo not given),"20.6 µM [falling, partial curve, poor fit]",
CCCC(=O)Nc1ccc(C=C(C(C)=O)C(C)=O)cc1,"35.5 µM [falling, single point]",
Cc1cccc(/C=N/NC(=O)c2ccc3c(c2)OCCO3)c1O,"20 µM [falling, partial curve, poor fit]",
O=C1CCCc2nn(-c3ccccc3)c(-c3ccncc3)c21,"6.31 µM [falling, full curve, poor fit]",
CC(=O)c1c(C)[nH]c(C(=O)Nc2cc(C)cc(C)c2)c1C,"29.1 µM [rising, partial curve, poor fit]",
CCc1ccc(/C=C2\SC(=S)N(CCC(=O)NCCCN3CCOCC3)C2=O)cc1,"7.08 µM [falling, partial curve, poor fit]",
Cc1ccc2nc(NC(=O)CSc3nc4c(c(=O)n3C)SC(C)C4)sc2c1 (stereo not given),"20 µM [falling, partial curve, poor fit]",
Cc1cc(C)n(CC(C)C(=O)O)n1 (stereo not given),"35.5 µM [rising, single point]",
O=C1CCCC2=C1C(c1ccccc1)C1C(=O)c3ccccc3C1=N2 (stereo not given),,"25.9 µM [rising, partial curve, poor fit]"
CC(=O)c1c(C)oc2c1cc(NS(=O)(=O)c1ccc(Br)cc1)c1ccccc12,"3.98 µM [rising, full curve]","2.82 µM [falling, full curve, poor fit]"

# 3 entries from above, sorted by SMILES length, descending:
Compound,AC50 [1],AC50 [2]
CC(=O)c1c(C)oc2c1cc(NS(=O)(=O)c1ccc(Br)cc1)c1ccccc12,"3.98 µM [rising, full curve]","2.82 µM [falling, full curve, poor fit]"
CCn1nc(C(=O)NNC(=O)C(Cc2ccccc2)NC(N)=O)c2ccccc2c1=O (stereo not given),"10.3 µM [rising, partial curve]",
O=C1CCCc2nn(-c3ccccc3)c(-c3ccncc3)c21,"6.31 µM [falling, full curve, poor fit]",
